Assay results published in publication PMC6704105.
No constants are given. Whether binding was seen depends on the method and setting. In cells and extracts the contact can be indirect. Binding can be weak; no strength is given. Where a sequence is shown, tags or fusion partners need not be part of it.

Target: T1, Human recombinant His-JDP2 protein (human) (UniProt Q8WYK2)
T1 sequence: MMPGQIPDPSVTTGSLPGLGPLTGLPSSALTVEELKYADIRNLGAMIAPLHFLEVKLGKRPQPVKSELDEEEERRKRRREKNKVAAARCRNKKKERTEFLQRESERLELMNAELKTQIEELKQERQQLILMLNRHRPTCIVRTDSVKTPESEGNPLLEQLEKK
Test: co-IP; in vitro binding assay: recombinant His-tagged JDP2 mixed with recombinant Histone 3 or Histone 4, precipitated with anti-His antibody; with Flag-immunoprecipitates from cells transfected with 0, 1.0 and 5.0 μg Flag-β-catenin plasmid; both purified

| Substance | binding |
| --- | --- |
| recombinant Histone 4 | binds |
| recombinant Histone 3 | binds |
